Screen size: about 330,000 compounds; about 1,000 (0.3%) were called active. Inconclusive results, whose numbers are uncertain, are shown with a selection of clear calls. Calls come from the whole dose curve; as a rule, active = well fitted inhibition curve with a large enough effect; inconclusive = small, poorly fitted or top-dose-only effect; inactive = no such curve, though single readings can be large or run the other way; tested in mouse RAW 264.7 cells. A potency beside an inconclusive call is a rough fit, not a confirmed value.
Assay: qHTS for Inhibitors of Cell Surface uPA Generation; note: nearly all actives have a fitted effect of over 55% in size
Settings: cell surface uPA generation assay; series mostly up to 38.3 µM; activity change, negative = inhibition: at the top concentration
Summary of the method: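 ATP-Lite luminescence in RAW 264.7 cells after 24 h of exposure to compound, tested up to 38.3 uM final in 1:5 steps. Raised ATP reflects inhibition of uPA-dependent LF delivery to the cytoplasm.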
% is set by controls: 0 for no effect and ±100 for the full control effect; potency is the fitted concentration of half-maximal effect.

Structure (SMILES)	activity change, negative = inhibition	Potency
O=C(COC(=O)/C=C/c1cccc(F)c1)NC1CCCCCC1	inactive: 9.68%	
COc1cc(-c2ccc3c(=O)c4ccccc4n(C)c3c2)cc(OC)c1OC		inconclusive: 8.91 µM [inhibitor, partial curve, poor fit]
CCC1CCCCN1CCCNC(=O)CCC(=O)N1CC(C)Oc2ccccc21 (centres undefined)	inactive: 3.91%	
COC(=O)C1=C(C)N(Cc2ccccc2)C(=S)N[C@H]1c1ccccc1		inconclusive: 28.2 µM [inhibitor, single point]
CCc1ccc(/C=C2\CN(CC)Cc3c2nc2ccccc2c3C(=O)O)cc1	inactive: 4.7%	
CC(=O)c1ccsc1-c1c(C)cc2oc(=O)cc(-c3ccccc3)c2c1C		inconclusive: 10 µM [inhibitor, partial curve, poor fit]
COc1cc(OC)cc(C(=O)N2CCN(Cc3ccccc3[N+](=O)[O-])CC2)c1	inactive: -1.23%	
Cn1nc(-c2ccccc2)cc1NC(=O)Nc1ccc(C(C)(C)C)cc1	inactive: -4.36%	
O=C(N/N=C/c1ccsc1)c1cc(-c2cccs2)nc2ccccc12		inconclusive: 10 µM [inhibitor, partial curve, poor fit]
O=C(Nc1ccc2c(c1)OCCO2)c1cccs1		inconclusive: 5.01 µM [inhibitor, partial curve]
CN1CCN(c2ccc(S(=O)(=O)N3CCCCC3)cc2NC(=O)c2cccc([N+](=O)[O-])c2)CC1		inconclusive: 0.224 µM [inhibitor, full curve, poor fit]
Cc1c(O)cccc1C(=O)N[C@@H](CSc1ccccc1)[C@H](O)CN1C[C@H]2CCCC[C@H]2C[C@H]1C(=O)NC(C)(C)C		inconclusive: 7.08 µM [inhibitor, single point]
C=CCC1(CC=C)CCCN1C(=O)C1CCC(=O)N(CCc2ccccc2)C1 (centres undefined)	inactive: -6.77%	
CC1=NN(CCC#N)C(=O)/C1=C/c1ccc(N(C)C)cc1	inactive: -2.76%	
COc1ccccc1NCCC(=O)OCC(=O)Nc1ccccc1Cl		inconclusive: 3.16 µM [inhibitor, partial curve, poor fit]
CC(C)CNS(=O)(=O)c1ccc(CCC(=O)N2CCN(c3ccc(F)cc3)CC2)cc1		inconclusive: 1 µM [inhibitor, full curve, poor fit]
CCN(c1ccccc1)S(=O)(=O)c1ccc(C(=O)Nc2nnc(CSC)o2)cc1		inconclusive: 3.98 µM [inhibitor, partial curve, poor fit]
O=C1Nc2cc(C(=O)NCCN3CCCCCC3)ccc2S/C1=C\c1ccccc1		inconclusive: 12.6 µM [inhibitor, single point]
CCCCOc1ccc(OC(=O)Nc2cc(Cl)ccc2OC)cc1		inconclusive: 1.78 µM [inhibitor, single point]
C=CC[C@@H](CC(=O)N[C@H](CO)Cc1ccccc1)C(=O)N[C@H](COC(=O)[C@@H](CC=C)CC(=O)OC(C)(C)C)Cc1c[nH]c2ccccc12		inconclusive: 11.2 µM [inhibitor, single point]
O=c1c2ccccc2oc2ccc(C#CC3(O)CCCCC3)cc12		active: 2.82 µM
O=C(COc1ccc(Cl)cc1)Nc1cccc(-c2ccc3nncn3n2)c1	inactive: -0.529%	
CCN(CC)S(=O)(=O)c1ccc(N/N=C(\C)c2cccnc2)nc1		inconclusive: 0.0158 µM [inhibitor, full curve, poor fit]

An excerpt of these results, as a markdown table.

| Structure (SMILES) | activity change, negative = inhibition | Potency |
| --- | --- | --- |
| COc1cc(OC)cc(C(=O)N2CCN(Cc3ccccc3[N+](=O)[O-])CC2)c1 | inactive: -1.23% |  |
| Cn1nc(-c2ccccc2)cc1NC(=O)Nc1ccc(C(C)(C)C)cc1 | inactive: -4.36% |  |
| O=C(N/N=C/c1ccsc1)c1cc(-c2cccs2)nc2ccccc12 |  | inconclusive: 10 µM [inhibitor, partial curve, poor fit] |

Following part:

Structure (SMILES)	activity change, negative = inhibition	Potency
CN(CC(=O)Nc1cccc(S(=O)(=O)N2CCCCC2)c1)Cc1ccc(F)cc1		inconclusive: 10 µM [inhibitor, single point]
Cc1ccc(S(=O)(=O)N2CCOCC2)cc1NC(=O)CNCc1ccccn1	inactive: 2.23%	
CCOC(=O)N1CCN(C2=C(NS(=O)(=O)c3ccc(C)cc3)C(=O)c3ccccc3C2=O)CC1		inconclusive: 10 µM [inhibitor, single point]
Oc1cccnc1Sc1cccc(C(F)(F)F)c1	inactive: 2.2%	
CCOc1ccc(N(CC(=O)OC)S(=O)(=O)c2c(C)noc2C)cc1		inconclusive: 2.51 µM [inhibitor, partial curve, poor fit]
COc1cc(NC(=O)C(c2ccccc2)c2ccccc2)c(C(=O)O)cc1OC	inactive: -6.14%	
Cc1cccc2nc(CSc3nnc4ccccn34)cn12	inactive: 0.435%	
Cc1ccc(C(=O)OC(C(=O)Nc2ccc(Cl)cc2C(F)(F)F)c2ccccc2)cc1 (centres undefined)	inactive: 3.12%	
O=C(NOCc1ccccc1)c1ccc(Cl)cc1Cl		inconclusive: 3.98 µM [inhibitor, partial curve, poor fit]
O=C1CSC(=S)N1c1ccc(O)cc1		inconclusive: 10 µM [inhibitor, partial curve, poor fit]
CCOC(=O)c1ccc(NC(=S)Nc2ccc(Br)cc2N)cc1		inconclusive: 3.55 µM [inhibitor, partial curve, poor fit]
CCOc1ccc(-n2c(-c3ccccc3)c[n+]3c2CCCCC3)cc1		inconclusive: 3.55 µM [inhibitor, partial curve, poor fit]
O=C(/C=C/c1ccc(F)cc1)N1CCN(c2ccccn2)CC1		inconclusive: 0.631 µM [inhibitor, partial curve, poor fit]
COC(=O)/C=C1\N/C(=N\c2nc(C)cc(C)n2)N(c2ccc(C)cc2)C1=O		inconclusive: 17.8 µM [inhibitor, partial curve, poor fit]
CCOC(=O)c1ccc(N2C(=O)c3n[nH]c(-c4ccco4)c3C2c2cccc([N+](=O)[O-])c2)cc1 (centres undefined)		inconclusive: 2.51 µM [inhibitor, single point]
COc1ccc2c(c1)C(=O)C(=O)N2CC1COc2ccccc2O1 (centres undefined)		inconclusive: 12.6 µM [inhibitor, single point]
CNC(=S)Nc1cccc(C(=O)O)c1	inactive: 14.7%	
NNC(=O)C1CC(O)CN1S(=O)(=O)c1ccc2ccccc2c1 (centres undefined)	inactive: -2.69%	
O=C(Nc1ccc2c(c1)CCC2)c1ccccc1		inconclusive: 10 µM [inhibitor, single point]
CC(C)N1CC(C(=O)Nc2cc(Cl)cc(Cl)c2)CC1=O (centres undefined)		active: 7.08 µM
OC(COc1c(F)cc(Br)cc1F)CN1CCc2ccccc2C1 (centres undefined)		inconclusive: 22.4 µM [inhibitor, single point]
Cc1ccccc1OCC(=O)N/N=C/c1ccc([N+](=O)[O-])o1		inconclusive: 28.2 µM [inhibitor, single point]
COc1ccc(Nc2nnc(SCC3CCCCO3)s2)cc1 (centres undefined)		inconclusive: 11.2 µM [inhibitor, single point]

Structure (SMILES)	activity change, negative = inhibition	Potency
O=C(N/N=C/c1cc(Cl)cc(Cl)c1O)c1ccncc1		active: 3.16 µM
COc1ccc2cc1Oc1ccc(cc1)C[C@H]1c3c(cc4c(c3Oc3cc5c(cc3OC)CCN(C)[C@@H]5C2)OCO4)CCN1C		inconclusive: 12.6 µM [inhibitor, single point]
S=C(NCCc1ccccc1)N1CCN(C(=S)NCCc2ccccc2)CC1	inactive: 2.39%	
Cc1ccc(SCC(=O)Nc2ccc(N3CCN(C)CC3)c(F)c2)c(C)c1		inconclusive: 12.6 µM [inhibitor, partial curve, poor fit]
Oc1c(C(c2ccccc2Cl)N2CCCC2)ccc2cccnc12 (centres undefined)		active: 7.94 µM
FC(F)(F)c1ccc(N2CCOCC2)c(NC2=NCCCCC2)c1	inactive: -3.11%	
COc1ccc(NC(=O)c2[nH]c(C)c(C(C)=O)c2C)cc1Cl	inactive: -7.06%	
COCC(C)NC(=O)C1c2ccccc2Oc2ccccc21 (centres undefined)		inconclusive: 3.16 µM [inhibitor, full curve, poor fit]
CC1(C)C(CSc2nc3ccccc3[nH]2)C1(Cl)Cl (centres undefined)	inactive: 7.07%	
CC1CCCN(c2ccc([N+](=O)[O-])cc2C(=O)c2ccccc2)C1 (centres undefined)		active: 0.158 µM
Cc1ccc(CSc2nccc(-c3c(C)nc4ccccn34)n2)cc1		inconclusive: 12.6 µM [inhibitor, single point]
COC(=O)c1cc(-c2ccc(NC(C)=O)cc2)nc2ccccc12	inactive: -6.63%	
Cc1nnc(SCC(=O)Nc2ccc(S(=O)(=O)N3CCCC3)cc2)n1N	inactive: 1.89%	
COC(=O)c1ccc(NC(=O)c2cccnc2)cc1		inconclusive: 10 µM [inhibitor, partial curve]
O=C(O)c1cc(-c2ccc(Br)s2)nc2ccccc12		inconclusive: 8.91 µM [inhibitor, single point]
Cc1cccc(OCC(=O)Nc2nccs2)c1C		inconclusive: 6.31 µM [inhibitor, partial curve, poor fit]
COc1cc(OC)c2c(-c3cccc(-c4ccc(O)cc4)c3)cc(=O)oc2c1		inconclusive: 7.94 µM [inhibitor, partial curve, poor fit]
COc1ccc(CNCCC(c2ccc(OC(C)C)cc2)c2ccccc2OC)cc1 (centres undefined)		inconclusive: 6.31 µM [inhibitor, partial curve]
CC(NS(=O)(=O)c1ccc(Br)cc1)C(=O)NCCc1ccccc1 (centres undefined)	inactive: 10.4%	
CCCOc1cc(NCc2ccccc2)c2ncn(C(C)C)c2c1		inconclusive: 22.4 µM [inhibitor, single point]
CCCN1CCC(=O)N(CCSc2ccc(C)cc2)CC1		inconclusive: 10 µM [inhibitor, partial curve, poor fit]
COc1ccc(-c2cc(C(F)F)n3ncc(C(=O)N4CCc5ccccc54)c3n2)cc1		inconclusive: 2.51 µM [inhibitor, full curve, poor fit]
COC(=O)C1=C(C)N(Cc2ccccc2)C(=NCCc2ccccn2)N[C@H]1c1cccc(C(F)(F)F)c1		inconclusive: 28.2 µM [inhibitor, single point]

— PubChem BioAssay AID540303 (National Center for Advancing Translational Sciences (NCATS), 2011)
